This is an account of results in patent US6552168B1 (Merck Frosst Canada & Co., priority 1998, dated 2003).

The data set is described as follows: general procedure: Fmoc solid-phase peptide synthesis; resin from Example 1, Step 4 (polymer, 0.7 meq/g loading); HATU and DIEA (instead of TBTU and HOBt). As to conditions: for crude mass: whole synthesis, scale 290 mg polymer (0.7 meq/g); for step yield: late stage modification step.

“(3S)-3-((2S)-2-[((2S)-2-[(2S)-2-Amino-4-methoxy-4-oxobutanoyl]aminopropanoyl)amino]-3-methylbutanoylamino)-4-oxo-7-phenylheptanoic acid”: the crude mass was 71 mg.

In turn, “(3S)-3-((2S)-2-[((2S)-2-[(2S)-2-(Acetylamino)-3-carboxypropanoyl]aminopropanoyl)amino]-3-methylbutanoylamino)-7-(1-naphthyl)-4-oxoheptanoic acid” gave a crude mass of 83 mg.

“(3S)-3-((2S)-2-[((2S)-2-[(2S)-2-(Acetylamino)-3-carboxypropanoyl]amino-4-carboxybutanoyl)amino]-3-methylbutanoylamino)-4-oxo-7-phenylheptanoic acid” had a crude mass of 58 mg.

As for “(3S)-3-[((2S)-2-[(2S)-2-((2S)-3-Carboxy-2-[(3,5-dibromobenzoyl)amino]propanoylamino)propanoyl]amino-3-methylbutanoyl)amino]-4-oxo-7-phenylheptanoic acid”, the crude mass is 83 mg.

Turning to “(3S)-3-[((2S)-2-[(2S)-2-((2S)-3-Carboxy-2-[(3,5-dideuteriobenzoyl)amino]propanoylamino)propanoyl]amino-3-methylbutanoyl)amino]-4-oxo-7-phenylheptanoic acid”, the step yield came to 100%.

The substance “(3S)-3-((2S)-2-[((2S)-2-[(2S)-2-(Acetylamino)-4-methoxy-4-oxobutanoyl]aminopropanoyl)amino]-3-methylbutanoylamino)-4-oxo-7-phenylheptanoic acid” had a step yield of 63%.
